We go through 21 compounds from the supplement of paper PMC12889115.

This assay deals with Salmonella enterica serovar Typhimurium SL1344. The experiment in a line: bacterial growth OD600 after 18 h with compound and polymyxin B; higher = more bacterial growth (less inhibition). The settings on record: 50 µM, Mueller-Hinton broth.

The other results are listed elsewhere or left out. Values are raw readings; no control value is given beside them.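 First-pass screen: polymyxin B was added at a level that permeabilizes the Salmonella outer membrane while sparing the inner membrane. DMSO wells, with and without polymyxin B, defined maximum growth. Because plates differed from one another, each plate's data were ranked separately and the compounds with the lowest OD600 were carried forward as hits.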

With `O=C(Nc1ccc(N2CCC(NCCC3=CCCCC3)CC2)cc1)c1ccc2c(c1)OCO2`, the “bacterial growth OD600” value (polymyxin B 0.75 µg/mL) turned out to be 0.797.

Regarding `Cc1nonc1CC(=O)N1CCc2onc(-c3ccc(F)c(F)c3)c2C1`, under “polymyxin B 0.75 µg/mL”, the “bacterial growth OD600” value stood at 0.952.

Take `COc1ccccc1CC(=O)Nc1cnn(CC(=O)N2CCC(OCc3ccccc3)CC2)c1`: where the note is “polymyxin B 0.75 µg/mL”, the “bacterial growth OD600” value came to 0.771.

`CO[C@H]1[C@H](NC(=O)Cc2cccs2)c2ccccc2C12CCN(Cc1ccc(F)cc1F)CC2`: the “bacterial growth OD600” value (polymyxin B 0.75 µg/mL) was found to be 0.93.

Take `CCN(Cc1nccn1CC)CC1CCN(CCc2ccccc2C)CC1`: the “bacterial growth OD600” value (polymyxin B 1 µg/mL) was 1.12.

Turning to `O=C(CCC(=O)N1CCCC(Nc2ccccc2)C1)c1ccc(F)cc1` (stereo unspecified), the “bacterial growth OD600” value (polymyxin B 1 µg/mL) was determined as 0.749.

For `COCCN(CCOC)c1ccc(-c2nc(-c3ccccc3F)no2)cn1`, the “bacterial growth OD600” value (polymyxin B 1 µg/mL) was 0.825.

Consider `O=C(Nc1ccnn1C1CCN(Cc2ccc(F)cc2)CC1)c1ccccc1Cl`, for which the “bacterial growth OD600” value (polymyxin B 1 µg/mL) was 1.05.

Regarding `O=C(NC1CC(=O)N(CC2CCCCC2)C1)c1cccnc1` (stereo unspecified), the “bacterial growth OD600” value (polymyxin B 1 µg/mL) was found to be 0.916.

In the case of `CCOC(=O)C1(Cc2cccc(Cl)c2)CCCN(C(=O)c2ccc(C)nc2)C1` (stereo unspecified), the “bacterial growth OD600” value (polymyxin B 1 µg/mL) was determined as 0.742.

For the compound `O=C(c1ccc(Cl)cc1F)N1CCCC(Nc2cccc(F)c2)C1` (stereo unspecified), the “bacterial growth OD600” value (polymyxin B 1 µg/mL) worked out at 0.611.

Take `Cc1c[nH]c(CN(C)C(=O)c2ccc3oc(CCCc4ccccc4)nc3c2)n1`: under “polymyxin B 0.75 µg/mL”, the “bacterial growth OD600” value was found to be 0.751.

`COCCNC(=O)c1ccc(OC)cc1OC1CCN(CCCC(F)(F)F)CC1`: for the setting “polymyxin B 1 µg/mL”, the “bacterial growth OD600” value was 1.04.

Regarding `O=C(c1cn(C/C=C/c2ccccc2)nn1)N1CCC(c2ccc(F)cc2)C1` (stereo unspecified), the “bacterial growth OD600” value (polymyxin B 1 µg/mL) worked out at 0.023.

With `COc1ccc(CNC(C)c2cnn(-c3cccc(F)c3)c2C)c(F)c1` (stereo unspecified), for the setting “polymyxin B 0.75 µg/mL”, the “bacterial growth OD600” value was found to be 0.916.

On to `O=C(NCC1CCCN(CC#Cc2ccccc2)C1)c1cccs1` (stereo unspecified), for which the “bacterial growth OD600” value (polymyxin B 1 µg/mL) was 0.719.

Turning to `CCOc1ccc2nc(N3CCCN(Cc4ccc(OCCO)cc4)CC3)nc(C)c2c1`, the “bacterial growth OD600” value (polymyxin B 0.75 µg/mL) amounted to 0.787.

Consider `COc1cccc(-c2ccc(NC(=O)C3CCCN(C(=O)CC(F)(F)F)C3)cc2)c1` (stereo unspecified), for which the “bacterial growth OD600” value (polymyxin B 0.75 µg/mL) came to 0.796.

Regarding `CN(CCC1CCOCC1)C(=O)c1cc(COc2cccc(F)c2)[nH]n1`, where the note is “polymyxin B 1 µg/mL”, the “bacterial growth OD600” value was found to be 1.03.

For `CN1CCC(CC(=O)NC2CCCN(CC3CCCCC3)C2)CC1` (stereo unspecified), the “bacterial growth OD600” value (polymyxin B 1 µg/mL) is 0.997.

Consider `CCC1CN(Cc2c(C)n(C)n(-c3ccccc3)c2=O)Cc2cc(OC)ccc2O1` (stereo unspecified), for which, for the setting “polymyxin B 0.75 µg/mL”, the “bacterial growth OD600” value worked out at 0.867.
